Results taken from paper doi:10.1101/2024.09.12.612644.
Where a chain is given by its changes, count along the chain named. No constants are given. Whether binding was seen depends on the method and setting. For some of these results: In cells and extracts the contact can be indirect. Some binding calls cover weakened binding; strength is not graded here. For some of these results: Tags and fused reporters may be left off the sequences shown. Values belong to the molecule of their own block, whether it stands above or below them.

Protein sequences, listed by entry. Tags and fused reporters are not part of them.
UniProt Q03330: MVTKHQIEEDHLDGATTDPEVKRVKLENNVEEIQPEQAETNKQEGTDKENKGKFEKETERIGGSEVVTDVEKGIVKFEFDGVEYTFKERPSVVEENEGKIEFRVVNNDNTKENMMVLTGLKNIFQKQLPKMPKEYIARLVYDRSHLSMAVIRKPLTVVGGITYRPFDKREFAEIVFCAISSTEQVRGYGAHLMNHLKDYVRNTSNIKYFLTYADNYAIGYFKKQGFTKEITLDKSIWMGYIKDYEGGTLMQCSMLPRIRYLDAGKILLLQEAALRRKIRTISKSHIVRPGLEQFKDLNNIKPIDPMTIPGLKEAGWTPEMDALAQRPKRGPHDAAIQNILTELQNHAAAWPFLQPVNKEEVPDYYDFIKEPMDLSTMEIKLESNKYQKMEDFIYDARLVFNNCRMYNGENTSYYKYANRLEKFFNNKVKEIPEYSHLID

Experiments:
Mip6-TAP (S. cerevisiae) = biological target: T1, Mip6-TAP (S. cerevisiae) (UniProt P38760); assay: tandem affinity purification
T1 sequence: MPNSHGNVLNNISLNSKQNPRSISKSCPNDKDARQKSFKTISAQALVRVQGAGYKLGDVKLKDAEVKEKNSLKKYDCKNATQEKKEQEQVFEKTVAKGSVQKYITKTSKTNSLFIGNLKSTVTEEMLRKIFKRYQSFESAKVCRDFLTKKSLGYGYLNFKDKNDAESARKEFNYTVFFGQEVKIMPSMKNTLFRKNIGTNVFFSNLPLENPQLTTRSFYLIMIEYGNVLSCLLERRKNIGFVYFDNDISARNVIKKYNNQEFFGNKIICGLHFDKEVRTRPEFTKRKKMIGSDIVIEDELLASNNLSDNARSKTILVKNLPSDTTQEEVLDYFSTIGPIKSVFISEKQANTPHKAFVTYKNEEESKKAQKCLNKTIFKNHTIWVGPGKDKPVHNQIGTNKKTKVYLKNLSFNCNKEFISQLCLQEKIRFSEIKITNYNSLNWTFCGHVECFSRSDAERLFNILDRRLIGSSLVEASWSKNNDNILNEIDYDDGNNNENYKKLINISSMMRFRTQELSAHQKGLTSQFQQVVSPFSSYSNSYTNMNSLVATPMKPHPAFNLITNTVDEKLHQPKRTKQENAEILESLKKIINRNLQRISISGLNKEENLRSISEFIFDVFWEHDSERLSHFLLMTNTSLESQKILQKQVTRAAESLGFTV

[1] = biological target: T2, Mip6W442A-GFP (S. cerevisiae) (UniProt P38760); assay: co-IP
T2 sequence: T1 sequence with W442A

Mip6-GFP (S. cerevisiae) = biological target: T3, Mip6-GFP (S. cerevisiae) (UniProt P38760); assay: co-IP
T3 sequence: T1 sequence

binding (Mip6-TAP (S. cerevisiae)): binds
Molecule: Gcn5 (from UniProt Q03330 1-439) (enzyme)

binding [1]: binds
binding (Mip6-GFP (S. cerevisiae)): binds
B1: Rpd3-TAP (enzyme, UniProt P32561 1-433)
chain: MVYEATPFDPITVKPSDKRRVAYFYDADVGNYAYGAGHPMKPHRIRMAHSLIMNYGLYKKMEIYRAKPATKQEMCQFHTDEYIDFLSRVTPDNLEMFKRESVKFNVGDDCPVFDGLYEYCSISGGGSMEGAARLNRGKCDVAVNYAGGLHHAKKSEASGFCYLNDIVLGIIELLRYHPRVLYIDIDVHHGDGVEEAFYTTDRVMTCSFHKYGEFFPGTGELRDIGVGAGKNYAVNVPLRDGIDDATYRSVFEPVIKKIMEWYQPSAVVLQCGGDSLSGDRLGCFNLSMEGHANCVNYVKSFGIPMMVVGGGGYTMRNVARTWCFETGLLNNVVLDKDLPYNEYYEYYGPDYKLSVRPSNMFNVNTPEYLDKVMTNIFANLENTKYAPSVQLNHTPRDAEDLGDVEEDSAEAKDTKGGSQYARDLHVEHDNEFY

binding (Mip6-TAP (S. cerevisiae)): binds
B2: Rpd3 (enzyme, UniProt P32561 1-433)
chain: B1 chain
